The assay deals with Paired Box-1 (PAX1), FLAG-tagged, full-length cDNA in pCMV-Tag 2B (human) (UniProt P15863). Nature of the assay: co-IP; anti-FLAG antibody used for immunoprecipitation of FLAG-PAX1; blots with antibodies against the histone H3K4 HMT complex and DNA demethylases (Fig. 5E).

Protein sequences, listed by entry. Tags and fused reporters are not part of them.
UniProt P15863: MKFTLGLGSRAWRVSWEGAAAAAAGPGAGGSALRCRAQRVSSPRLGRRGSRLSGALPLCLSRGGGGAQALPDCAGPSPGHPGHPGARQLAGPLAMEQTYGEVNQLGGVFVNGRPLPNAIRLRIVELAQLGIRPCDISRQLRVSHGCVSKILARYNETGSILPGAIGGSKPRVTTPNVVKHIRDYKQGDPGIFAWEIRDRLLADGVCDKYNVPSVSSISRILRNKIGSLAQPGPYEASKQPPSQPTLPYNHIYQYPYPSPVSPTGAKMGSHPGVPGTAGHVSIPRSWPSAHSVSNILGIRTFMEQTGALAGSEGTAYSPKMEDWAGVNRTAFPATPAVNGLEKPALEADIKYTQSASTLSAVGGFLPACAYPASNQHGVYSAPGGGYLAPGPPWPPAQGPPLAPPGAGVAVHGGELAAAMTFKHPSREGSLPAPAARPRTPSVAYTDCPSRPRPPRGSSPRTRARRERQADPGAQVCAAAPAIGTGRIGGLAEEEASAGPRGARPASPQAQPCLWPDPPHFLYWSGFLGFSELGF
UniProt Q03164: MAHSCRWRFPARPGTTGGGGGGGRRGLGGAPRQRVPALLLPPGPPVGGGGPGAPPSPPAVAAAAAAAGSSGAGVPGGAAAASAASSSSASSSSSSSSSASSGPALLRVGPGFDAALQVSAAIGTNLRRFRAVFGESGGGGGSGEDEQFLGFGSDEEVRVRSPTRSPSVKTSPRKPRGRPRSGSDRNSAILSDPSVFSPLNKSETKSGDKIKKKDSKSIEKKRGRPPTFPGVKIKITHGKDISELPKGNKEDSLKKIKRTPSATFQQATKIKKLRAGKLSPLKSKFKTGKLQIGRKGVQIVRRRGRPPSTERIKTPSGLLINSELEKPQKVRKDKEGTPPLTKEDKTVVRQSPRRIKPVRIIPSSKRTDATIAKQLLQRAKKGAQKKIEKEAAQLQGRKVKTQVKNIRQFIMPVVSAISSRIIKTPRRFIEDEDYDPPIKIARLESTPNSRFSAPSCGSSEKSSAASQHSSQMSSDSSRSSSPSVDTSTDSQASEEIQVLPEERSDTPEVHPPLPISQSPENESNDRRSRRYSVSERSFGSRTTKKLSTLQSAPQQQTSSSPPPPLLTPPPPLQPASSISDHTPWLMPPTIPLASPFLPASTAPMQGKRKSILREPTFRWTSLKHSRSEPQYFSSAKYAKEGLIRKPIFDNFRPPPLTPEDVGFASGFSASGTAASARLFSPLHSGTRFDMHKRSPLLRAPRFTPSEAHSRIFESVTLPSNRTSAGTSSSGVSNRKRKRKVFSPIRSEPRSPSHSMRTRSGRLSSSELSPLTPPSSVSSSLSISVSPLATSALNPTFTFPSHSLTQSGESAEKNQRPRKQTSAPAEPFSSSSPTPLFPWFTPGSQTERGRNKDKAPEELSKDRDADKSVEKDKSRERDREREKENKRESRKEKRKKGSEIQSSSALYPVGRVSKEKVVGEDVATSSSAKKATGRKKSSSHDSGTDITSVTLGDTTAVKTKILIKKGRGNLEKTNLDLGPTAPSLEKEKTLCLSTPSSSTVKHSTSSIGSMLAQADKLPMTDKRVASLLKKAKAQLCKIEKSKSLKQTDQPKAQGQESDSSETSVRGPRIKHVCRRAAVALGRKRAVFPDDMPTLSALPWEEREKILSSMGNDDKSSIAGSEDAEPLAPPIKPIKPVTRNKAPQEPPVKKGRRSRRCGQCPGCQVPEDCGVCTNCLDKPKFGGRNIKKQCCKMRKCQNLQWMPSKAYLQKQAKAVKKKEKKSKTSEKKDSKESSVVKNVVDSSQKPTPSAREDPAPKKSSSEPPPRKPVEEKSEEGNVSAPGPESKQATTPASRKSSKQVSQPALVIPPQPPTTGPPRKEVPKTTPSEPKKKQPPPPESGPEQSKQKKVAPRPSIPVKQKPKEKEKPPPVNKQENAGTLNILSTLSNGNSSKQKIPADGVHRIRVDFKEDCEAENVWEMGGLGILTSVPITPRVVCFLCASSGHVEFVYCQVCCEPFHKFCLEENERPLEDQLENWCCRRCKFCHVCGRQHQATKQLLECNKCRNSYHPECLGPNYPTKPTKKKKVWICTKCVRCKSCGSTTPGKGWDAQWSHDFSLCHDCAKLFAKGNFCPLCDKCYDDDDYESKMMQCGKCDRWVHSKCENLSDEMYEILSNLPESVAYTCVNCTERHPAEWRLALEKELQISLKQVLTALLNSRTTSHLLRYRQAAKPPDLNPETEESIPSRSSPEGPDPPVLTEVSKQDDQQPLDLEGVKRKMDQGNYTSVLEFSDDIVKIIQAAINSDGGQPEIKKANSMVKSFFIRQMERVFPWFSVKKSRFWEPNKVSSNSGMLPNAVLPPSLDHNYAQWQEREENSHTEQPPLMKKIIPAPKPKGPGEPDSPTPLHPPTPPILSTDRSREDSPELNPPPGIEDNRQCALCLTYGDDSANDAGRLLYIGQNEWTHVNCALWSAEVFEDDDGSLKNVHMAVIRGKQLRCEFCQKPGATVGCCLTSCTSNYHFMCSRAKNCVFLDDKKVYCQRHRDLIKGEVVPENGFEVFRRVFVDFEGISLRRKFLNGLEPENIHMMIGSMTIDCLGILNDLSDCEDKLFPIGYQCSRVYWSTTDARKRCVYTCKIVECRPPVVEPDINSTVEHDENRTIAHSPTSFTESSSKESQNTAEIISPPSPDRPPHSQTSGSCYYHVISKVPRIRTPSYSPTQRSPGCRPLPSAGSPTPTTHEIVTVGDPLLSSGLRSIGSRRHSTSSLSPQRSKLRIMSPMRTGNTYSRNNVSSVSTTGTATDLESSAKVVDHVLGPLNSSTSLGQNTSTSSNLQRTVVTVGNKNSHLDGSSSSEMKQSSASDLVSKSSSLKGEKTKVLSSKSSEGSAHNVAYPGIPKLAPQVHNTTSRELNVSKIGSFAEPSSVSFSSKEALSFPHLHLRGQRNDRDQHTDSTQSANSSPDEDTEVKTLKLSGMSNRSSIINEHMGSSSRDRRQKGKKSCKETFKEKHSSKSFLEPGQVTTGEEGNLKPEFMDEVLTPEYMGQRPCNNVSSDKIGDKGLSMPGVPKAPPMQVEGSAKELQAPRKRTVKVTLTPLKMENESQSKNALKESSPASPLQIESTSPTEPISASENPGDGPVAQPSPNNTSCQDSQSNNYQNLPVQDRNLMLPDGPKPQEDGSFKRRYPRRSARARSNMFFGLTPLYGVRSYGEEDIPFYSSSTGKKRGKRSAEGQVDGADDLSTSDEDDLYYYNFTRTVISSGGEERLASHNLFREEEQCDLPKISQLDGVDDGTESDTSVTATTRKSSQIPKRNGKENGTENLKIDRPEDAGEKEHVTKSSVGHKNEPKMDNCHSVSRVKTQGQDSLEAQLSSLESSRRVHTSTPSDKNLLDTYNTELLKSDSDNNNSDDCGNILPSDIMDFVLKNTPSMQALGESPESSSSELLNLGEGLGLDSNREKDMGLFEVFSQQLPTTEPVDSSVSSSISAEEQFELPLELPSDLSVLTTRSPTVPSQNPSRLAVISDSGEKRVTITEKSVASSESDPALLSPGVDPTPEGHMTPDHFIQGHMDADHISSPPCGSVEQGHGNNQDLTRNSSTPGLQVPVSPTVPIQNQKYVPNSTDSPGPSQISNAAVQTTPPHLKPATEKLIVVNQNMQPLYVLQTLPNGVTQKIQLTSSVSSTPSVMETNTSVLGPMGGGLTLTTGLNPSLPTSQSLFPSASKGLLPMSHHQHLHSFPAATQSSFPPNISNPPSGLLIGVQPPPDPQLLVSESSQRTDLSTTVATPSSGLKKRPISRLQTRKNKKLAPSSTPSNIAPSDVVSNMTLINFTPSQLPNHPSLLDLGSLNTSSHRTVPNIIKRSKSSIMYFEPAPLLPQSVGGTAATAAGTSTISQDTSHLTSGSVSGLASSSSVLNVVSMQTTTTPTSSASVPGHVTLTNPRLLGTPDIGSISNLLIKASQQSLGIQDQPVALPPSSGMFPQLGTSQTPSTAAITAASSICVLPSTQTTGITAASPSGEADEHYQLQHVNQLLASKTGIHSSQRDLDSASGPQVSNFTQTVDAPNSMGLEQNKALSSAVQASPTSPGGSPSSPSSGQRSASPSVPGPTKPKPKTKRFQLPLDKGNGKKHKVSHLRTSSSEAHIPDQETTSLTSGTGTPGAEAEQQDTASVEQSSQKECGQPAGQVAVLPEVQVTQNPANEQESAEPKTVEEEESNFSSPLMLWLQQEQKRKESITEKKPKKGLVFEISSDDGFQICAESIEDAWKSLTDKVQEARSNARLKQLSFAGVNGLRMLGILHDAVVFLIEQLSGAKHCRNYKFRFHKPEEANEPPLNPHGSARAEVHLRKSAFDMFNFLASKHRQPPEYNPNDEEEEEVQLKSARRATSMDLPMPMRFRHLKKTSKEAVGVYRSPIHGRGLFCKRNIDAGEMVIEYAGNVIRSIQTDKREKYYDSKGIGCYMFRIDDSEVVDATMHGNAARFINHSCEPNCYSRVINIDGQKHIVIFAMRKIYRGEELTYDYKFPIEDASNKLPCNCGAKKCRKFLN
UniProt Q9UPS6: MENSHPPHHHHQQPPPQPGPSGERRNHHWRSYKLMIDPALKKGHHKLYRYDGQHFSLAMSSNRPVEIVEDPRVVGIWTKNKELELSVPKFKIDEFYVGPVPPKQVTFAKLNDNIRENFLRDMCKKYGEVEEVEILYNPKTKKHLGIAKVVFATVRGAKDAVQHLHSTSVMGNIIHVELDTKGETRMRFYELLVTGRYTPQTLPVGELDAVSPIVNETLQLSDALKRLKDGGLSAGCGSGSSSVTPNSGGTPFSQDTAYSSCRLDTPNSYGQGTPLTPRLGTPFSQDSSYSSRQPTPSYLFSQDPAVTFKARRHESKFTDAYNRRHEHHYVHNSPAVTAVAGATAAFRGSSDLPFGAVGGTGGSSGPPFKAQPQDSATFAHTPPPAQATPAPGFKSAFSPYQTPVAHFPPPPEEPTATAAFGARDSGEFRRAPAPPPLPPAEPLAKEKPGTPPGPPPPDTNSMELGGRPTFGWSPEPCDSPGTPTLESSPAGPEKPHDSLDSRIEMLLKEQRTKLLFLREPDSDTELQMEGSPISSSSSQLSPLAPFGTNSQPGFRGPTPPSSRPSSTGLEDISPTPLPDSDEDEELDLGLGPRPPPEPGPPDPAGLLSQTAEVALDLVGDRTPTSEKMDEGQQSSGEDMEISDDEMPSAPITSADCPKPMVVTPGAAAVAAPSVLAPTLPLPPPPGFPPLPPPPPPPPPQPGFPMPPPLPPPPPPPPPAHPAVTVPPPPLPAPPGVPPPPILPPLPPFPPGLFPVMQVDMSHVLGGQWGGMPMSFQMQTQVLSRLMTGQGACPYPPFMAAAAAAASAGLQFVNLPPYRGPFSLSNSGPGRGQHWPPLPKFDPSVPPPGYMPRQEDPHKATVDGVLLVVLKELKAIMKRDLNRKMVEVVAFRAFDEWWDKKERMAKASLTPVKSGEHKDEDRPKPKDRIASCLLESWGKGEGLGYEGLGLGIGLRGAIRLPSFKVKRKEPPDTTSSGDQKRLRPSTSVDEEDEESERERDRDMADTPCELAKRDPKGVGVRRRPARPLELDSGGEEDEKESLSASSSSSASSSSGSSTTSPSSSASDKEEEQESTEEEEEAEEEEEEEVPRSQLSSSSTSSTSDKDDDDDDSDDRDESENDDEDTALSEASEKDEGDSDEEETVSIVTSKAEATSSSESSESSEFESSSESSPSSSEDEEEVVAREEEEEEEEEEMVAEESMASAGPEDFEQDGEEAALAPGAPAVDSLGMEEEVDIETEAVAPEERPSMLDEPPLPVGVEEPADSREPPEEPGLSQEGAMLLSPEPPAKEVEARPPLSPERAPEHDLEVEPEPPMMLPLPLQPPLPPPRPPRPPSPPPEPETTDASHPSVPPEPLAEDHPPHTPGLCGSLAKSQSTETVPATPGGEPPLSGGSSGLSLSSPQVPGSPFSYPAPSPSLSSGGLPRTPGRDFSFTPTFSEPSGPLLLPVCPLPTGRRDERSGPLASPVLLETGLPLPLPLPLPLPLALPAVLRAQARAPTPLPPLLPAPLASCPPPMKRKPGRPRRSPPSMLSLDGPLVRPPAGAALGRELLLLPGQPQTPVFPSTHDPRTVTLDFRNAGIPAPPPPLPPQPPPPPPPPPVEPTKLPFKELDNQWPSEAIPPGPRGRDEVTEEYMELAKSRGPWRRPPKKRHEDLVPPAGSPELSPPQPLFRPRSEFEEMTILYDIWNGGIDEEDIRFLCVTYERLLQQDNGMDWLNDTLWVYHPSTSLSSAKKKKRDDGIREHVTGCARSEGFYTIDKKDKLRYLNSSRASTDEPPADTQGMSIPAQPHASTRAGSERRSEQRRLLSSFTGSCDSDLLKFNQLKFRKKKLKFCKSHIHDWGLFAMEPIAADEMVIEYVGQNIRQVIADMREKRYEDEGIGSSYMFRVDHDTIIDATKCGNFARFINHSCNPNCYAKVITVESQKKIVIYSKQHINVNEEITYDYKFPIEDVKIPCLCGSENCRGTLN

No constants are given. Whether binding was seen depends on the method and setting. Binding seen in cells or lysates may run through a third protein. Some results given as binding are weak or reduced against the parent protein; the word gives no strength.

On to MLL1 (from UniProt Q03164 1-3969), for which the binding entry is “no binding”.

As to MLL4 (from UniProt Q9UMN6 1-2715), the binding entry was “no binding”.

For the substance SET1A (from UniProt O15047 1-1707), the binding result is given as “no binding”.

With SET1B (from UniProt Q9UPS6 1-1966), the binding result is “binds”.

Values taken from paper PMC6591413.
